Measurements taken from article PMC12431657, “Discovery and mechanistic insights of dibenzoylmethane as a broad spectrum inhibitor of coronavirus” (PLOS Pathogens, 2025).
Structures can show the parent of a compound that is named as a salt. Out of some 3,300 compounds screened, about 60 (2%) showed an effect of 50% or more. The list shows a part of the results.

What follows are molecules tested on HCoV-OC43. Details: 24 h post infection, 1 h compound pre-incubation; 10 µM; inhibitor.
Set-up: species or system RD; HTS, protection from HCoV-OC43 induced cell death, luminescent cell viability (CellCounting-Lite 2.0), inhibition rate

Row | Structure (SMILES) | OC43 Inhibition rate [%]
1 | COc1cc(OC)c2c(=O)cc(-c3ccccc3)oc2c1 [5,7-Dimethoxyflavone] | 1
2 | C=C(C)[C@H](CC=C(C)C)Cc1c(O)cc(O)c2c1O[C@H](c1ccccc1O)CC2=O [Kushenol A] | 7.8
3 | CC(=O)N[C@@H](Cc1c[nH]c2ccccc12)C(=O)O [N-Acetyl-L-tryptophan] | 6.6
4 | COc1ccc(-c2cc(=O)c3c(O)cc(O[C@@H]4O[C@H](CO)[C@@H](O)[C@H](O)[C@H]4O[C@@H]4O[C@@H](C)[C@H](O)[C@@H](O)[C@H]4O)cc3o2)cc1O [Neodiosmin] | -0.3
5 | CC(C)=CC(=O)O [3-Methylbut-2-enoic acid] | 0.5
6 | CC(C)=CCc1c(O)cc2oc3cc(O)c(O)c(CCC(C)(C)O)c3c(=O)c2c1O [Garcinone C] | -1.1
7 | C/C=C(\CC[C@@H](C)[C@H]1CC[C@H]2[C@@H]3CC=C4C[C@@H](O)CC[C@]4(C)[C@H]3CC[C@]12C)C(C)C [Fucosterol] | -0.6
8 | N[C@@H](CCO)C(=O)O [L-Homoserine] | -0.7
9 | C=CC(C)(O)CCC=C(C)CCC=C(C)C (mixture of isomers) [Nerolidol] | 3
10 | O=C(O)[C@H]1CCCN1 [(R)-pyrrolidine-2-carboxylic acid] | -5
11 | C=C(C)[C@@H]1CC[C@]2(COC(C)=O)CC[C@]3(C)[C@H](CC[C@@H]4[C@@]5(C)CC[C@H](OC(C)=O)C(C)(C)[C@@H]5CC[C@]43C)[C@@H]12 [Betulin diacetate] | -0.4
12 | O=c1c(O)c(-c2ccccc2)oc2ccc(O)cc12 [3,6-Dihydroxyflavone] | 0.4
13 | COc1cc(-c2oc3cc(OC)c(OC)c(O)c3c(=O)c2OC)ccc1O [Chrysosplenetin] | 47.1
14 | C[C@@H]1O[C@@H](OC[C@H]2O[C@@H](Oc3c(-c4ccc(O)cc4)oc4cc(O)cc(O)c4c3=O)[C@H](O[C@@H]3O[C@@H](C)[C@H](O)[C@@H](O)[C@H]3O)[C@@H](O)[C@H]2O)[C@H](O)[C@H](O)[C@H]1O [Mauritianin] | -0.4
15 | CC(C)C1=Cc2ccc3c(c2C(=O)C1=O)CCCC3(C)C [Miltirone] | 1.1
16 | COc1cc(OC)c2c(=O)cc(-c3cc(OC)c(OC)c(OC)c3)oc2c1 [3',4',5',5,7-Pentamethoxyflavone] | 32
17 | CCC(=O)CO [1-Hydroxy-2-butanone] | -0.4
18 | CC(C)=CC(=O)NCC(=O)O [3-Methylcrotonylglycine] | -1
19 | Nc1ccn([C@@H]2O[C@H](COP(=O)(O)OP(=O)(O)O)[C@@H](O)[C@H]2O)c(=O)n1 [Cytidine 5'-diphosphate (trisodium salt)] | 3.6

Row | Structure (SMILES) | OC43 Inhibition rate [%]
20 | O=C(OCC1=C[C@@H](O)[C@@H]2C=CO[C@@H](O[C@@H]3O[C@H](CO)[C@@H](O)[C@H](O)[C@H]3O)[C@H]12)c1ccc(O)cc1 [Agnuside] | -0.1
21 | CC1=COC(=O)[C@H]2[C@@H]1CC[C@@H]2C [4aα,7α,7aα-Nepetalactone] | 0.2
22 | CC(=O)N[C@@H](Cc1ccc(O)cc1)C(=O)O [N-Acetyl-L-tyrosine] | 1
23 | OC[C@@H](O)[C@@H](O)[C@H](O)[C@H](O)CO [D-Mannitol] | -8.1
24 | C=CCc1ccc(O)c(OC)c1 [Eugenol] | 0
25 | CO[C@@H]1[C@H](O)[C@@H](CO)O[C@H]1n1ccc(=O)[nH]c1=O [2′-O-Methyluridine] | -1.2
26 | CNc1ncnc2c1ncn2[C@@H]1O[C@H](CO)[C@@H](O)[C@H]1O [N6-Methyladenosine] | 1.8
27 | O=C(O)C1=C[C@@H](O)[C@@H](O)[C@H](O)C1 [Shikimic acid] | -4.9
28 | Cc1ccc(C=O)s1 [5-Methyl-2-thiophenecarboxaldehyde] | 0
29 | O=C(O)[C@H]1CC[C@H](O)CC1 [trans-4-Hydroxycyclohexanecarboxylic acid] | 0.3
30 | C[C@H]1CC[C@@]2(OC1)O[C@H]1C[C@H]3[C@@H]4CC=C5C[C@@H](O[C@@H]6O[C@@H](C)[C@H](O)[C@@H](O)[C@H]6O)C[C@@H](O[C@@H]6O[C@H](C)[C@H](O)[C@H](O)[C@H]6O)[C@]5(C)[C@H]4CC[C@]3(C)[C@H]1[C@@H]2C [Liriopesides B] | 13.7
31 | COC(=O)C[C@H]1[C@]2(C)C3=C(C)[C@H](c4ccoc4)C[C@H]3O[C@@H]2[C@@H]2OC(=O)[C@]3(C)C=CC(=O)[C@@]1(C)[C@@H]23 [Nimbolide] | 5.8
32 | C=C(C)[C@@H]1CC[C@]2(C(=O)O)CC[C@]3(C)[C@H](CC[C@@H]4[C@@]5(C)CC[C@H](O)C(C)(C)[C@@H]5CC[C@]43C)[C@@H]12 [Betulinic acid] | -18.3
33 | O=C(/C=C/c1ccc(O)c(O)c1)c1ccc(O[C@@H]2O[C@H](CO)[C@@H](O)[C@H](O)[C@H]2O)c(O)c1O [Marein] | 0.4
34 | O=c1ccc2cc3ccoc3cc2o1 [Psoralen] | 1.3
35 | Oc1ccc2c(c1)OC[C@]1(O)Cc3cc(O)c(O)cc3[C@H]21 [Brazilin] | 26.3
36 | C[C@H]1O[C@@H](O[C@H]2CC[C@@]3(C)[C@@H](CC[C@]4(C)[C@@H]3C=CC3=C5CC(C)(C)CC[C@]5(CO)[C@@H](O)C[C@]34C)[C@]2(C)CO)[C@H](O[C@@H]2O[C@H](CO)[C@@H](O)[C@H](O)[C@H]2O)[C@@H](O[C@@H]2O[C@H](CO)[C@@H](O)[C@H](O)[C@H]2O)[C@H]1O [Buddlejasaponin IVb] | 0.5
37 | NCC(O)c1ccccc1 (centres unmarked) [2-Amino-1-phenylethanol] | 0
38 | CC1(C)C[C@@H](O)[C@]2(C)CC[C@]3(C)C(=CC[C@@H]4[C@@]5(C)CC[C@H](O)[C@](C)(CO)[C@@H]5CC[C@]43C)[C@@H]2C1 [Soyasapogenol B] | -1.1

Two entries from above in another layout.
Row	Structure (SMILES)	OC43 Inhibition rate [%]
29	O=C(O)[C@H]1CC[C@H](O)CC1 [trans-4-Hydroxycyclohexanecarboxylic acid]	0.3
30	C[C@H]1CC[C@@]2(OC1)O[C@H]1C[C@H]3[C@@H]4CC=C5C[C@@H](O[C@@H]6O[C@@H](C)[C@H](O)[C@@H](O)[C@H]6O)C[C@@H](O[C@@H]6O[C@H](C)[C@H](O)[C@H](O)[C@H]6O)[C@]5(C)[C@H]4CC[C@]3(C)[C@H]1[C@@H]2C [Liriopesides B]	13.7
